In article PMC11116412:
No constants are given. Whether binding was seen depends on the method and setting. In cells and extracts the contact can be indirect. A yes stands for co-enrichment or nearness to the bait. Other partners may have been found.

Target: Zonula occludens-1 (bovine (endogenous in BAECs))
Test: affinity purification with mass spectrometry; ZO-1 immunoprecipitated (1 µg ZO-1 antibody, 1 mg protein, overnight, protein A agarose beads) from lysates of BAECs treated or not with VEGF (40 ng/ml, 10 min); lysis buffer 1% Nonidet P-40, 0.1% SDS, 0.1% deoxycholic acid, 50 mM Tris pH 7.4, 75 mM …; LC-MS/MS; compared with IgG control IPs, FDR 0.05

Binder | binding
cingulin (CGNL1) (protein, UniProt G5E5V6 1-1293) MELYFGEYQHVQQEYGVHLRLASDETRKSRNSQHAKAGSYGVSIRVQGIDGHPYIVLNNTEQCLAGTSFSENGPSFPAPMINNLPLHPSKGSVVEESSAEELQLPENPYAPPGPVRNLKQPSVFEGKNGALERKEEPRKASPMLNFERHPELLQPYDPEKNELSLKNHQPPETSWLKALREGTNNKKAWTCMPKPSLSQPTSPPSEDPARSNVTAIRLCSSVVIDDPKKQTSVCMNVQSCSKECLAEEALAPSGRPLPTPSLQAHLEAKKTRPDVLPFRRQDSAGPVLDGARSRRSSSSSTTPTSANSLYRFLLDDQECAIHADNVNRHENRRYIPFLPGTGRDIDTGSIPGVDQLIEKFDQKPGMQRRGRSGKRNRINPEDRKRSRSVDSAFPFGLQGNSEYLTEFSRNLGKSSEHLLRPSQVCPPRAQEHRGRQGGGRAFARLLGAQPRPPLQNKDGKVPENKSAQESPTGRTSSLPAQTKKEEEIKTVTATLMLQNPALATSPDSGTKRISVKTFTSTSNTQATPDLLKGQQELTQQTNEETAKQILYNYLKEGSTDNDDATKRKVNLVFEKIQTLKSRAAGSTQGNNQASNSSSEVKDLLEQKNKLTTEVAELQTQLQLEVKNQQNIKEERDRMKADLEVLQSQHDSKVEESTVLQRRLEESEGALRRHLEELFQVKMEREQHQTEIRDLQDQLSEMHDELDSAKQSEDREKGALIEELLQAKQDLQHLLIAKEEQEDLLRKRERELTALKGALKEEVSSHDREMDKLKEQYDAELLALRESVEEATKNVEVLASRSSSAEQTQVGAEMRVKALQEENEKLRGSVEELERTVARLQRQLADLQDDEAKAKETLKKCEGETRQLEEALLHARKEEKEATSAKRALQTELEEAQRNLSRATQEQKQLSERLKDEAEQKEQLRRLKNEMENERWHLDKTIEKLQKEMADIVEVSRTSTLELQNQLDEYKEKNRRELAEMQRQLKEKTLEAEKSHLTAMKLQDEMRLMEEELRDYQRAQEEALTKRQLLEQTLKDLEYELEAKSHLKDDRGRLVKQMEDKVSQLEMELEEERNNSDLLSERITRSREQMEQMRNELLQERAMKQDLECDKISLERQNKDLKSRIIHLEGSYRSSKEGLVVQMEARIAELEDRLESEERDRASLQLSNRRLERKVKELVMQVDDEHLSLTDQKDQLSLRLKAMKRQVEEAEEEIDRLESSKKKLQRELEEQMDVNEQLQGQLNSMKKDLRLKKLPSKVLDDVDDDDDLSTDGGSLYEAPLSYTFPKDSTVVSQI | binds
junction plakoglobin (protein, UniProt Q8SPJ1 1-745) MEVMNLIEQPIKVTEWQQTYTYDSGIHSGANTCVPSLSSKGLIEEDEACGRQYTLKKTTTYTQSVPPGQGDLEYQMSTTARAKRVREAMCPGVTGEDSSLLLTTQVEGQTTNLQRLAEPSQLLKSAIVHLINYQDDAELATRALPELTKLLNDEDPVVVTKAAMIVNQLSKKEASRRALMGSPQLVAAVVRTMQNTSDLDTARCTTSILHNLSHHREGLLAIFKSGGIPALVRMLSSPVESVLFYAITTLHNLLLYQEGAKMAVRLADGLQKMVPLLNKNNPKFLAITTDCLQLLAYGNQESKLIILANGGPQALVQIMRNYSYEKLLWTTSRVLKVLSVCPSNKPAIVEAGGMQALGKHLTSNSPRLVQNCLWTLRNLSDVATKQEGLESVLKILVNQLSVDDVNVLTCATGTLSNLTCNNSKNKTLVTQNSGVEALIHAILRAGDKDDITEPAVCALRHLTSRHPEAEMAQNSVRLNYGIPAIVKLLNQPNQWPLVKATIGLIRNLALCPANHAPLQEAAVIPRLVQLLVKAHQDAQRHVAAGTQQPYTDGVRMEEIVEGCTGALHILARDPMNRMEIFRLNTIPLFVQLLYSSVENIQRVAAGVLCELAQDKEAADAIDAEGASAPLMELLHSRNEGTATYAAAVLFRISEDKNPDYRKRVSVELTNSLFKHDPAAWEAAQSMIPMNEPYADDMDATYRPMYSSDVPMDPLEMHMDMDGDYPIDTYSDGLRPPYATADHMLA | binds
